These are literature values, as cited in patent US20020006953A1, “MODIFICATION OF CHOLESTEROL CONCENTRATIONS WITH CITUS PHYTOCHEMICALS” (priority 1999, published 2002).

Where two headings read alike, the source gives them in different places.

For this data set the following is noted: 4-5 weeks.

On to `Nc1nc2ncc(CNc3ccc(C(=O)N[C@@H](CCC(=O)O)C(=O)O)cc3)nc2c(=O)[nH]1` [folic acid], for which the “plasma folate, increase” value is given as 30% (individuals with coronary heart disease, 127 μg daily) and 100% (women, 250 μg per day).
